Measured values: the supplement of paper PMC10849652
The list shows a part of the results.

Protein sequences, listed by entry. Tags and fused reporters are not part of them. Lines headed by an entry give the natural chain unless they say otherwise; changes in a name come on top.
UniProt Q5T0N5: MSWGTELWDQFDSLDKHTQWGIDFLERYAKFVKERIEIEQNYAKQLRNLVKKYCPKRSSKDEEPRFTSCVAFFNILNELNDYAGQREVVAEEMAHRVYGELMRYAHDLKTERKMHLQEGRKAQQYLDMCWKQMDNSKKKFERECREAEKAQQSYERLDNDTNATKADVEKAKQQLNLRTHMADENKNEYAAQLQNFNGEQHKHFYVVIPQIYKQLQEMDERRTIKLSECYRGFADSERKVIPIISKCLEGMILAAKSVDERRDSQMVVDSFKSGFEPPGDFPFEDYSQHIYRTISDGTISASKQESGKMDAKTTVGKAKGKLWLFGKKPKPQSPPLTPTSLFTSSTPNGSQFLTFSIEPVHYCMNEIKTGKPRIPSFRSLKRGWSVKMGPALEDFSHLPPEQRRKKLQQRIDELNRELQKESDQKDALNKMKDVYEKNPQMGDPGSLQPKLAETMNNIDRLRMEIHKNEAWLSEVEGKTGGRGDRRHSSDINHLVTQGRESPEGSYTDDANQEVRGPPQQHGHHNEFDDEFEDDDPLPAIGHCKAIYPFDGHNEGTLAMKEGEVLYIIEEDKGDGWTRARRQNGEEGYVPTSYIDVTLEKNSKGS
UniProt Q13643: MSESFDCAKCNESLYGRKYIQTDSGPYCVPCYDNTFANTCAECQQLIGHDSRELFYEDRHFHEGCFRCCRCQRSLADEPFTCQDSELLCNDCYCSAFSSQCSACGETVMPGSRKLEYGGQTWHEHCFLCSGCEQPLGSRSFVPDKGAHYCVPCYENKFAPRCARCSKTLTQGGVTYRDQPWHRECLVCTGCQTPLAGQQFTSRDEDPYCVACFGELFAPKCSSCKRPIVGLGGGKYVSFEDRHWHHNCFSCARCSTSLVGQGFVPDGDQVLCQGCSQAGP
UniProt Q9UKT4: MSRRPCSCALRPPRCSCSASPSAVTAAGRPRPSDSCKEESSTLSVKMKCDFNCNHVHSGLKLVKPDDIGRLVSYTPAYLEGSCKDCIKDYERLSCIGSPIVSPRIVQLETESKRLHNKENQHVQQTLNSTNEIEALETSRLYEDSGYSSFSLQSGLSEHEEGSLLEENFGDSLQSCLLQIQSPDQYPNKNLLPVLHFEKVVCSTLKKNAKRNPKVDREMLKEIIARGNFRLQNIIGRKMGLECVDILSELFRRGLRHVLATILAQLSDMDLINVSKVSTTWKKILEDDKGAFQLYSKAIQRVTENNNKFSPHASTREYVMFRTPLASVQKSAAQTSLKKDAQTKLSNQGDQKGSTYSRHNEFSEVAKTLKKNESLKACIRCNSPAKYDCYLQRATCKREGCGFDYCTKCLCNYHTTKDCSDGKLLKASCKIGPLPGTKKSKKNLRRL
UniProt Q96CP2: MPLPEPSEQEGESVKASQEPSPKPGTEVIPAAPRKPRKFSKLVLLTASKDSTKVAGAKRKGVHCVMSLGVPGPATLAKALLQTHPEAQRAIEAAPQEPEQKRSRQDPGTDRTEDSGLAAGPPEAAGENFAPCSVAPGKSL
UniProt O95466, whole entry, looked up: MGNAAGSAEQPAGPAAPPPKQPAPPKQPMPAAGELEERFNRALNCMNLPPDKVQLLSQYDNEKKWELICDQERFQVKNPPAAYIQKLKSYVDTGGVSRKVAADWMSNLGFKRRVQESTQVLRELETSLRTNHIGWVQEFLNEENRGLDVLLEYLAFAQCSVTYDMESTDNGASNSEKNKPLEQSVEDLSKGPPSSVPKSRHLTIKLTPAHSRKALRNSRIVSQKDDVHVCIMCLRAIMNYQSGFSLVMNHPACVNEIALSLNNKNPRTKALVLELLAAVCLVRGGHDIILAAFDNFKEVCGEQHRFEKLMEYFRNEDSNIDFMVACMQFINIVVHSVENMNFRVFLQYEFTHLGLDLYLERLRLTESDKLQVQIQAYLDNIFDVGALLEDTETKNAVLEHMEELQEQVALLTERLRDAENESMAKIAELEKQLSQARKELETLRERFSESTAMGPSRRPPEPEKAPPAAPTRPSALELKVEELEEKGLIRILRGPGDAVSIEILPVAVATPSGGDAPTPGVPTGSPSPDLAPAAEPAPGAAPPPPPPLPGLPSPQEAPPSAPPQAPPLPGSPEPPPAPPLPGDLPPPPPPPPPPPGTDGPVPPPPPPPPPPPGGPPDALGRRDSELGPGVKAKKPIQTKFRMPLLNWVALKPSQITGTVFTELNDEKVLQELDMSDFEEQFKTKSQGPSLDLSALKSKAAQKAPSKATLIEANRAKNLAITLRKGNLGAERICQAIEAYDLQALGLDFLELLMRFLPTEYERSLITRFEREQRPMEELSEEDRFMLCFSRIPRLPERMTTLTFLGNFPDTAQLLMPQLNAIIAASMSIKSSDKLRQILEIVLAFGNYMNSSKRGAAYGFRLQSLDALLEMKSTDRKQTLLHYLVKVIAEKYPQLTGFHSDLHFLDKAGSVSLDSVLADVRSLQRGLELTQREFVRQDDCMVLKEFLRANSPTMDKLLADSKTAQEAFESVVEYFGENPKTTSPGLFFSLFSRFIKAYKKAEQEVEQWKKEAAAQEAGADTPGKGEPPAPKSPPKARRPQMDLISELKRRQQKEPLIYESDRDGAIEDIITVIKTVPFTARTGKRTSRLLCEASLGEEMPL
UniProt Q9UBU6: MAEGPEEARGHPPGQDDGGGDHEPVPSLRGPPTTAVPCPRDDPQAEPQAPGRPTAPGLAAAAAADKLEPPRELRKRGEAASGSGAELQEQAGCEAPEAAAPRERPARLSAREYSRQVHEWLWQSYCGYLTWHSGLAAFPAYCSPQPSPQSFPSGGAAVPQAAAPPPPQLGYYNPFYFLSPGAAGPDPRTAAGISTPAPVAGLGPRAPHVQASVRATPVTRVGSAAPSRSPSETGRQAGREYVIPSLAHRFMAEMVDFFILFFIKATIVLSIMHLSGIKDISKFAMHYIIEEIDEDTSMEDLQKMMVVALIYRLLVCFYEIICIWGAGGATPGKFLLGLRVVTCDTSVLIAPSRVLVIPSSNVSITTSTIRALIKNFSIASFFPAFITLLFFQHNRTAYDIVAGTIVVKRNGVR
UniProt Q17RN3: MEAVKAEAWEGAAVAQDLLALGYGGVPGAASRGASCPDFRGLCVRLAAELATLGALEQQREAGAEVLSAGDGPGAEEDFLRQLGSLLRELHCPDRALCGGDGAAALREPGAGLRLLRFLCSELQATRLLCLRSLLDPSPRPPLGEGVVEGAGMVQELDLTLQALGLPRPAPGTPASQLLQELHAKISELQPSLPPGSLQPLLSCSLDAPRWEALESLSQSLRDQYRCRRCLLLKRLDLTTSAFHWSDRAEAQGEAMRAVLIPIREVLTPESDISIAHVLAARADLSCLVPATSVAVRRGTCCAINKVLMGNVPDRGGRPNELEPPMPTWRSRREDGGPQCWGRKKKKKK
UniProt Q13045: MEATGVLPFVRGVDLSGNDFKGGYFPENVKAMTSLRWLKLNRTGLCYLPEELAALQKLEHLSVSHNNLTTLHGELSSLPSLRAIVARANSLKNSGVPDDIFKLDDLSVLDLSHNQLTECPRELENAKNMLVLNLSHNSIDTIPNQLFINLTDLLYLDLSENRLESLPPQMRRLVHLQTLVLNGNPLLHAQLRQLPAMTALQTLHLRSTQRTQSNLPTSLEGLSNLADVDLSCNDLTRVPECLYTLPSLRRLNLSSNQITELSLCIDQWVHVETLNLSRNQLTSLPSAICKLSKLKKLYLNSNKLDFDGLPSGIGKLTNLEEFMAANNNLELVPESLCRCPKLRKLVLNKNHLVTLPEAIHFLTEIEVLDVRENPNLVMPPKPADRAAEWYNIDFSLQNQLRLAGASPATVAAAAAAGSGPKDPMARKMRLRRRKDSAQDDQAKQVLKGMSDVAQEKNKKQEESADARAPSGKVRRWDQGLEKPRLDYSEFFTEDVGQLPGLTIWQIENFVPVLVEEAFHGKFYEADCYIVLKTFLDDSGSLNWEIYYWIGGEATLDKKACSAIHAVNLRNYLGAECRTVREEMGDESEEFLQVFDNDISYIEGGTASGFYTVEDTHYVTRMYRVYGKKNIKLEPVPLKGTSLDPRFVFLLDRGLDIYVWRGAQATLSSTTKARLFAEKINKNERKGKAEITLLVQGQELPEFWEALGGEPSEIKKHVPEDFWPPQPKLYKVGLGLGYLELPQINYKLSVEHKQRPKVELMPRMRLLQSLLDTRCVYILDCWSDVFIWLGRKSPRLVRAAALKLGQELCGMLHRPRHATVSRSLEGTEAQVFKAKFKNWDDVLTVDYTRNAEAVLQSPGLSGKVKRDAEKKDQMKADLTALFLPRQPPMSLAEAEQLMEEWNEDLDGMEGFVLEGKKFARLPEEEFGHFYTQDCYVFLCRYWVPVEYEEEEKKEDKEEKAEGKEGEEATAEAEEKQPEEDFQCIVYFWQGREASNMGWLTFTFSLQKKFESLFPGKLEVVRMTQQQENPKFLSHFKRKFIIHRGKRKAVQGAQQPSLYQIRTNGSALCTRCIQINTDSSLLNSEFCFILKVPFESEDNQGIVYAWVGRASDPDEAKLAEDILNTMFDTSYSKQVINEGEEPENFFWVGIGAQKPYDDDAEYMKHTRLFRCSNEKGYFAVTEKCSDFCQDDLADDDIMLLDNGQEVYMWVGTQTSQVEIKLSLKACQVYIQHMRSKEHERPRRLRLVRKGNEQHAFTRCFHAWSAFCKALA
UniProt Q14192: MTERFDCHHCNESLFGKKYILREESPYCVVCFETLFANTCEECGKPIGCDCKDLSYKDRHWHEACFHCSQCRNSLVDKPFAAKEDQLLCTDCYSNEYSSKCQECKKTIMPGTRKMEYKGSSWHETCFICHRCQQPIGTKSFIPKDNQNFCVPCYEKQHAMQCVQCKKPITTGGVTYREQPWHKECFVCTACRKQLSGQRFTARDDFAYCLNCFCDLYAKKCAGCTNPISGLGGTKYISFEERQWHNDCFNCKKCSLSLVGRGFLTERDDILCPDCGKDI
UniProt Q8NFF5: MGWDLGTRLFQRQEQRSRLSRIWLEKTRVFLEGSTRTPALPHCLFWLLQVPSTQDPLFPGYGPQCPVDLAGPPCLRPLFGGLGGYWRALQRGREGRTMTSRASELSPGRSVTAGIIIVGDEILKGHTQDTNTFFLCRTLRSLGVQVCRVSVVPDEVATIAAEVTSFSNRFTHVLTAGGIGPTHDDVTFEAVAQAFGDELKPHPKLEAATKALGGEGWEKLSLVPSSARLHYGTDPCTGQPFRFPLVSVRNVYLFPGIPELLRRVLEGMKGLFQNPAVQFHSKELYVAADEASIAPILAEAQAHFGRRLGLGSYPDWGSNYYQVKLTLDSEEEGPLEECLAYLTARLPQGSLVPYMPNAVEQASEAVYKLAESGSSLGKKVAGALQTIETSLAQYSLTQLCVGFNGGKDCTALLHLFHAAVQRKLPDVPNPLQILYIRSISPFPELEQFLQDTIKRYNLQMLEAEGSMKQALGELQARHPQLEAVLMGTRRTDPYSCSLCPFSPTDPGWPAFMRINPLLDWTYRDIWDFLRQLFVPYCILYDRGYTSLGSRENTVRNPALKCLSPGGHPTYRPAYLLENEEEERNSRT
UniProt Q8NEZ5: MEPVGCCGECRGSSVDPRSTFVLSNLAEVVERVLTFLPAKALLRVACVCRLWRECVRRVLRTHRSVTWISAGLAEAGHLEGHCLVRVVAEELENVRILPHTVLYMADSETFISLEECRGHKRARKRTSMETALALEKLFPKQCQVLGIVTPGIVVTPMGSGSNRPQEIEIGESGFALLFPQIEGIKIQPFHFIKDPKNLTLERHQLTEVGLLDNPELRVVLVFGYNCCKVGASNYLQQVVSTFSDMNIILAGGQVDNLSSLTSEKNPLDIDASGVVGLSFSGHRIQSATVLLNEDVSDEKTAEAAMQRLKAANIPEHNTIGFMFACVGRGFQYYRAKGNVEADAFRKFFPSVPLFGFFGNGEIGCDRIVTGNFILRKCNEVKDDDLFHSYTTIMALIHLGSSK
UniProt Q02790: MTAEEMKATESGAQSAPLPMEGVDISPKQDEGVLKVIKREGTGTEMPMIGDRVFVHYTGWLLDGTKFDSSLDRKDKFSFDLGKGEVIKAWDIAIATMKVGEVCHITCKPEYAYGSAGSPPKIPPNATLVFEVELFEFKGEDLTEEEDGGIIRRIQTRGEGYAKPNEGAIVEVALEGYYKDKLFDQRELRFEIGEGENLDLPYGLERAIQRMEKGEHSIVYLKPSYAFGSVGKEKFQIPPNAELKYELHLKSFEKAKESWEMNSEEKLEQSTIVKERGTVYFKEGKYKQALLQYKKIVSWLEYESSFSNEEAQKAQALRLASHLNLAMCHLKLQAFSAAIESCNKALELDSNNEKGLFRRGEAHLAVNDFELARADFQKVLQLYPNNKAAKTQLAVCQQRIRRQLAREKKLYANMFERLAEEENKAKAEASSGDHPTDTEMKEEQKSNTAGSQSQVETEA

How the values were obtained:
Assay in all cases: log2 fold change, soluble protein after heating vs DMSO (PISA); higher = thermal stabilisation; K562 lysate, 10 uM; active = over 0.2 and 3.5 SD of the protein, either way, in both replicates (recomputed)
lapatinib = compound: CS(=O)(=O)CCNCc1ccc(-c2ccc3ncnc(Nc4ccc(OCc5cccc(F)c5)c(Cl)c4)c3c2)o1 [lapatinib]
Method in brief: (§1)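 Dounce homogenisation of K562 pellets in PBS pH 7.4 with 1 mM MgCl2 produced a crude extract, used at 1 mg/mL protein. Exposure to 10 μM compound lasted 30 min, and aliquots were then heated for 3 min across 48°C-58°C, pooled and brought to 0.5% NP-40 at 4°C. The supernatant after 21,000xg for 90 min was quantified by TMTpro 16plex LC-MS/MS with channel sums equalised. Duplicate values are given as log-two fold change in thermal stability relative to solvent controls.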

pictilisib = compound: CS(=O)(=O)N1CCN(Cc2cc3nc(-c4cccc5[nH]ncc45)nc(N4CCOCC4)c3s2)CC1 [pictilisib]
Method in brief: as §1

crizotinib = compound: C[C@@H](Oc1cc(-c2cnn(C3CCNCC3)c2)cnc1N)c1c(Cl)ccc(F)c1Cl [crizotinib]
Method in brief: as §1

[1] = compound: C[C@H](C1=CC=C(C=C1)C(=O)NC2=C3C=CNC3=NC=C2)N
Method in brief: as §1

duvelisib = compound: C[C@H](Nc1ncnc2nc[nH]c12)c1cc2cccc(Cl)c2c(=O)n1-c1ccccc1 [duvelisib]
Method in brief: as §1

gandotinib = compound: Cc1cc(Nc2cc(CN3CCOCC3)c3nc(C)c(Cc4ccc(Cl)cc4F)n3n2)n[nH]1 [gandotinib]
Method in brief: as §1

tozasertib = compound: Cc1cc(Nc2cc(N3CCN(C)CC3)nc(Sc3ccc(NC(=O)C4CC4)cc3)n2)n[nH]1 [tozasertib]
Method in brief: as §1

doramapimod = compound: Cc1ccc(-n2nc(C(C)(C)C)cc2NC(=O)Nc2ccc(OCCN3CCOCC3)c3ccccc23)cc1 [doramapimod]
Method in brief: as §1

bafetinib = compound: Cc1ccc(NC(=O)c2ccc(CN3CC[C@H](N(C)C)C3)c(C(F)(F)F)c2)cc1Nc1nccc(-c2cncnc2)n1 [bafetinib]
Method in brief: as §1

[2] = compound: Cc1cccc(CC(=O)N2CCc3c2ccc(-c2cn(C)c4ncnc(N)c24)c3F)n1
Method in brief: as §1

nilotinib = compound: Cc1cn(-c2cc(NC(=O)c3ccc(C)c(Nc4nccc(-c5cccnc5)n4)c3)cc(C(F)(F)F)c2)cn1 [nilotinib]
Method in brief: as §1

[3] = compound: Cc1nc(Nc2n[nH]c3c2CN(C(=O)N[C@H](CN(C)C)c2ccccc2)C3(C)C)c2sccc2n1
Method in brief: as §1

dasatinib = compound: Cc1nc(Nc2ncc(C(=O)Nc3c(C)cccc3Cl)s2)cc(N2CCN(CCO)CC2)n1 [dasatinib]
Method in brief: as §1

[4] = compound: Cc1ncc(-c2ccnc(Nc3ccc(S(C)(=O)=O)cc3)n2)n1C(C)C
Method in brief: as §1

[5] = compound: Cn1cc(-c2ccc3c(c2)CCN3C(=O)Cc2cccc(C(F)(F)F)c2)c2c(N)ncnc21
Method in brief: as §1

quisinostat = compound: Cn1cc(CNCC2CCN(c3ncc(C(=O)NO)cn3)CC2)c2ccccc21 [quisinostat]
Method in brief: as §1

tipifarnib = compound: Cn1cncc1[C@@](N)(c1ccc(Cl)cc1)c1ccc2c(c1)c(-c1cccc(Cl)c1)cc(=O)n2C [tipifarnib]
Method in brief: as §1

[6] = compound: NC(=O)Nc1cc(-c2cccc(F)c2)sc1C(=O)N[C@H]1CCCNC1
Method in brief: as §1

[7] = compound: NC(=O)c1cnc(N[C@@H]2CCCC[C@@H]2N)nc1Nc1cccc(-n2nccn2)c1
Method in brief: as §1

[8] = compound: NC1(c2ccc(-c3nc4ccn5c(=O)[nH]nc5c4cc3-c3ccccc3)cc2)CCC1
Method in brief: as §1

Measured: log2 fold change

FNBP1L (UniProt Q5T0N5)
inactive: lapatinib 0.005 | pictilisib 0 | crizotinib -0.039 | [1] -0.023 | duvelisib -0.115 | gandotinib 0.002 | tozasertib -0.003 | doramapimod 0.113 | bafetinib -0.089 | [2] -0.026 | nilotinib -0.076 | [3] 0.03 | dasatinib -0.131 | [4] 0.007 | [5] -0.051 | quisinostat -0.068 | tipifarnib -0.016 | [6] 0.018 | [7] -0.004 | [8] 0.025

FHL3 (UniProt Q13643)
inactive: lapatinib 0.11 | pictilisib 0.017 | crizotinib 0.019 | [1] 0.041 | duvelisib 0.017 | gandotinib 0 | tozasertib 0.033 | doramapimod 0.02 | bafetinib 0.104 | [2] -0.044 | nilotinib 0.047 | [3] 0.038 | dasatinib -0.126 | [4] 0.046 | [5] -0.029 | quisinostat 0.12 | tipifarnib 0.026 | [6] -0.083 | [7] -0.009 | [8] -0.001

FBXO5 (UniProt Q9UKT4)
inactive: lapatinib -0.195 | pictilisib -0.001 | crizotinib 0.013 | [1] 0.034 | duvelisib -0.025 | gandotinib -0.028 | tozasertib 0.047 | doramapimod 0.018 | bafetinib 0.025 | [2] -0.002 | nilotinib -0.047 | [3] -0.002 | dasatinib 0.056 | [4] 0.008 | [5] 0.022 | quisinostat -0.039 | tipifarnib -0.026 | [6] 0 | [7] 0.147 | [8] -0.073

FLYWCH2 (UniProt Q96CP2)
inactive: lapatinib 0.015 | pictilisib -0.057 | crizotinib 0.029 | [1] -0.037 | duvelisib 0.014 | gandotinib 0.05 | tozasertib -0.018 | doramapimod -0.036 | bafetinib 0.038 | [2] -0.038 | nilotinib 0.044 | [3] -0.012 | dasatinib 0.032 | [4] -0.033 | [5] -0.007 | quisinostat -0.017 | tipifarnib -0.033 | [6] -0.024 | [7] -0.016 | [8] 0.043

FMNL1 isoform 3 (UniProt O95466)
inactive: lapatinib 0.058 | pictilisib 0.005 | crizotinib -0.013 | [1] 0.044 | duvelisib 0 | gandotinib -0.056 | tozasertib -0.051 | doramapimod 0.048 | bafetinib -0.055 | [2] 0.042 | nilotinib -0.174 | [3] -0.043 | dasatinib -0.13 | [4] -0.135 | [5] 0.009 | quisinostat -0.047 | tipifarnib -0.038 | [6] -0.051 | [7] 0.012 | [8] -0.042

FAM8A1 (UniProt Q9UBU6)
inactive: lapatinib -0.055 | pictilisib -0.117 | crizotinib 0.039 | [1] -0.055 | duvelisib 0.05 | gandotinib -0.005 | tozasertib -0.09 | doramapimod 0.015 | bafetinib 0.055 | [2] 0.082 | nilotinib -0.051 | [3] -0.184 | dasatinib 0.1 | [4] 0.009 | [5] -0.064 | quisinostat -0.008 | tipifarnib -0.065 | [6] 0.072 | [7] 0.119 | [8] -0.004

FMR1 (UniProt Q06787)
inactive: lapatinib -0.01 | pictilisib -0.084 | crizotinib -0.011 | [1] -0.097 | duvelisib 0.06 | gandotinib 0.091 | tozasertib -0.039 | doramapimod -0.058 | bafetinib -0.037 | [2] 0.134 | nilotinib -0.061 | [3] 0.019 | dasatinib -0.038 | [4] 0.026 | [5] 0.07 | quisinostat 0.028 | tipifarnib -0.011 | [6] 0.018 | [7] -0.027 | [8] 0.004

FANCL isoform 2 (UniProt Q9NW38)
inactive: lapatinib -0.026 | pictilisib -0.063 | crizotinib -0.046 | [1] -0.226 | duvelisib 0.107 | gandotinib -0.341 | tozasertib 0.029 | doramapimod -0.151 | bafetinib -0.094 | [2] 0.031 | nilotinib -0.071 | [3] -0.043 | dasatinib -0.02 | [4] 0.009 | [5] -0.137 | quisinostat 0.104 | tipifarnib -0.098 | [6] 0.043 | [7] 0.327 | [8] -0.026

FNTA (UniProt P49354)
inactive: lapatinib 0 | pictilisib 0.016 | crizotinib -0.032 | [1] 0.038 | duvelisib 0.015 | gandotinib -0.012 | tozasertib -0.024 | doramapimod -0.004 | bafetinib -0.011 | [2] 0 | nilotinib -0.012 | [3] -0.01 | dasatinib -0.021 | [4] -0.036 | [5] 0.004 | quisinostat 0.003 | tipifarnib 0.058 | [6] 0.017 | [7] -0.032 | [8] 0.014

FAM98C (UniProt Q17RN3)
inactive: lapatinib 0.28 | pictilisib -0.099 | crizotinib 0.005 | [1] -0.019 | duvelisib -0.119 | gandotinib -0.059 | tozasertib -0.078 | doramapimod -0.013 | bafetinib -0.101 | [2] 0.038 | nilotinib 0.214 | [3] -0.059 | dasatinib 0.034 | [4] 0.015 | [5] -0.161 | quisinostat -0.183 | tipifarnib -0.141 | [6] 0.13 | [7] 0.199 | [8] -0.07

Reprinted at random: 2 records from the list, in no set order.
FMNL1 isoform 3 (UniProt O95466)
inactive: lapatinib 0.058 | pictilisib 0.005 | crizotinib -0.013 | [1] 0.044 | duvelisib 0 | gandotinib -0.056 | tozasertib -0.051 | doramapimod 0.048 | bafetinib -0.055 | [2] 0.042 | nilotinib -0.174 | [3] -0.043 | dasatinib -0.13 | [4] -0.135 | [5] 0.009 | quisinostat -0.047 | tipifarnib -0.038 | [6] -0.051 | [7] 0.012 | [8] -0.042

FNBP1L (UniProt Q5T0N5)
inactive: lapatinib 0.005 | pictilisib 0 | crizotinib -0.039 | [1] -0.023 | duvelisib -0.115 | gandotinib 0.002 | tozasertib -0.003 | doramapimod 0.113 | bafetinib -0.089 | [2] -0.026 | nilotinib -0.076 | [3] 0.03 | dasatinib -0.131 | [4] 0.007 | [5] -0.051 | quisinostat -0.068 | tipifarnib -0.016 | [6] 0.018 | [7] -0.004 | [8] 0.025

The list continues:

FLII (UniProt Q13045)
inactive: lapatinib 0.004 | pictilisib 0.01 | crizotinib -0.051 | [1] 0.042 | duvelisib -0.017 | gandotinib -0.046 | tozasertib 0.043 | doramapimod 0.03 | bafetinib -0.032 | [2] 0.003 | nilotinib 0.006 | [3] 0.027 | dasatinib -0.025 | [4] 0.001 | [5] 0.008 | quisinostat -0.049 | tipifarnib -0.008 | [6] 0.027 | [7] -0.004 | [8] -0.004

FHL2 (UniProt Q14192)
inactive: lapatinib 0.023 | pictilisib 0.005 | crizotinib 0.004 | [1] -0.038 | duvelisib 0.024 | gandotinib 0.033 | tozasertib -0.021 | doramapimod 0.105 | bafetinib -0.038 | [2] 0.029 | nilotinib 0.016 | [3] 0.054 | dasatinib -0.032 | [4] 0.039 | [5] 0.019 | quisinostat 0.012 | tipifarnib -0.018 | [6] -0.067 | [7] -0.037 | [8] 0.006

FBXO2 (UniProt Q9UK22)
inactive: lapatinib -0.022 | pictilisib 0.008 | crizotinib -0.063 | [1] -0.096 | duvelisib 0.098 | gandotinib -0.017 | tozasertib -0.11 | doramapimod -0.072 | bafetinib 0.036 | [2] 0.458 | nilotinib 0.036 | [3] -0.014 | dasatinib 0.015 | [4] -0.094 | [5] 0.025 | quisinostat 0.044 | tipifarnib -0.027 | [6] -0.018 | [7] -0.043 | [8] 0.045

FLAD1 (UniProt Q8NFF5)
inactive: lapatinib 0.007 | pictilisib 0.002 | crizotinib -0.024 | [1] 0.021 | duvelisib 0.05 | gandotinib 0.044 | tozasertib -0.052 | doramapimod -0.02 | bafetinib -0.052 | [2] -0.05 | nilotinib 0.051 | [3] -0.026 | dasatinib 0.002 | [4] 0.024 | [5] 0.019 | quisinostat -0.129 | tipifarnib 0 | [6] 0.03 | [7] 0.017 | [8] -0.026

FBXO22 (UniProt Q8NEZ5)
inactive: lapatinib -0.035 | pictilisib -0.027 | crizotinib -0.035 | [1] 0.035 | duvelisib -0.012 | gandotinib -0.03 | tozasertib 0 | doramapimod 0.034 | bafetinib -0.049 | [2] -0.039 | nilotinib 0.005 | [3] 0.021 | dasatinib -0.028 | [4] -0.036 | [5] 0.025 | quisinostat -0.047 | tipifarnib 0.034 | [6] 0.012 | [7] -0.007 | [8] -0.016

FKBP4 (UniProt Q02790)
inactive: lapatinib -0.001 | pictilisib 0.007 | crizotinib 0.04 | [1] -0.001 | duvelisib 0.012 | gandotinib -0.01 | tozasertib -0.009 | doramapimod -0.017 | bafetinib -0.001 | [2] -0.03 | nilotinib 0.016 | [3] 0.009 | dasatinib 0.002 | [4] 0.004 | [5] -0.014 | quisinostat 0.044 | tipifarnib 0.03 | [6] -0.001 | [7] -0.019 | [8] 0.038
